Test results reported in patent publication US20230108730A1, “BIENZYMATIC BIOSENSOR FOR THE DETECTION OF LACTULOSE IN BLOOD” (TRIVIUMVET DESIGNATED ACTIVITY COMPANY, priority 2020, published 2023).

Experiment: Plasma lactulose after oral lactulose solution in canine NSAID-induced gastric ulceration model (ion chromatography)
Format: in vivo, dog
Conditions: cut-off plasma lactulose >100 μM within 60 mins of oral 20% w/v lactulose solution; canine study group
Protocol: A model of canine gastric ulceration was developed using a combination of orally administered nonsteroidal anti-inflammatory drugs (NSAIDs) at doses appropriate to induce ulceration without concomitant renal or hepatic dysfunction. Healthy laboratory dogs (14.0 to 16.7 kg) were screened to exclude individuals with clinically silent disorders, including gastrointestinal disease. Under the GCP study protocol, each dog was administered 50 ml of a 20% w/v lactulose solution orally (0.6-0.7 g/kg lactulose PO) following a 24-h fast at baseline and following a period of ulcer induction. On each occasion, peripheral venous blood was drawn from each dog into 1.3-ml Sarstedt blood tubes containing lithium heparin as an anticoagulant at 10, 20, 30 and 60 minutes following bolus administration of the lactulose solution. The Sarstedt tube product number was 41.1393.005. […] Prior to lactulose administration, endoscopy was performed on each dog, and the presence and extent of gastric ulceration were assessed by a blinded specialist veterinary gastroenterologist. […] Following thawing, the samples were analysed for lactulose concentration using an ion chromatography method previously developed using blank plasma samples spiked with known concentrations of lactulose. […] The supernatants were analysed directly by ion chromatography. […] Samples were analysed in duplicate. […]

With OC[C@H]1O[C@@H](O[C@@H]2[C@@H](CO)OC(O)(CO)[C@H]2O)[C@H](O)[C@@H](O)[C@H]1O (mixture of isomers) [Lactulose, lactulose] the “sensitivity for induced gastric ulceration” value was 75% and the “specificity for induced gastric ulceration” value was 100%.
